Assay results published in the supplement of paper PMC8728848.
Some of the results follow.

Legend:
Assay in all cases: glycan array binding signal (z-score within array); higher = stronger binding
Settings in all cases: glycan notation: IUPAC condensed, linker removed
Fuc(a1-2)Gal(b1-4)Glc6S = target: Fuc(a1-2)Gal(b1-4)Glc6S
How it was run: (§1)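 Arrays were curated from the Consortium for Functional Glycomics database, 3228 in total, and kept only where the protein sequence was available. Binding is expressed as a within-array Z-score. This score was averaged across arrays of the same protein sequence at different concentrations or buffers and across linkers, and negative values can be read as non-binding.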

Fuc(a1-2)Gal(b1-4)GlcNAc = target: Fuc(a1-2)Gal(b1-4)GlcNAc
How it was run: as §1

[1] = target: Fuc(a1-2)Gal(b1-4)GlcNAc(b1-2)Man
How it was run: as §1

[2] = target: Fuc(a1-2)Gal(b1-4)GlcNAc(b1-2)Man(a1-3)[Fuc(a1-2)Gal(b1-4)GlcNAc(b1-2)Man(a1-6)]Man(b1-4)GlcNAc(b1-4)GlcNAc
How it was run: as §1

[3] = target: Fuc(a1-2)Gal(b1-4)GlcNAc(b1-2)Man(a1-3)[Fuc(a1-2)Gal(b1-4)GlcNAc(b1-2)Man(a1-6)]Man(b1-4)GlcNAc(b1-4)[Fuc(a1-6)]GlcNAc
How it was run: as §1

[4] = target: Fuc(a1-2)Gal(b1-4)GlcNAc(b1-2)[Fuc(a1-2)Gal(b1-4)GlcNAc(b1-4)]Man(a1-3)[Fuc(a1-2)Gal(b1-4)GlcNAc(b1-2)Man(a1-6)]Man(b1-4)GlcNAc(b1-4)GlcNAc
How it was run: as §1

[5] = target: Fuc(a1-2)Gal(b1-4)GlcNAc(b1-3)Gal(b1-4)GlcNAc
How it was run: as §1

[6] = target: Fuc(a1-2)Gal(b1-4)GlcNAc(b1-3)Gal(b1-4)GlcNAc(b1-2)Man(a1-3)[Fuc(a1-2)Gal(b1-4)GlcNAc(b1-3)Gal(b1-4)GlcNAc(b1-2)Man(a1-6)]Man(b1-4)GlcNAc(b1-4)GlcNAc
How it was run: as §1

[7] = target: Fuc(a1-2)Gal(b1-4)GlcNAc(b1-3)Gal(b1-4)GlcNAc(b1-3)Gal(b1-4)GlcNAc
How it was run: as §1

[8] = target: Fuc(a1-2)Gal(b1-4)GlcNAc(b1-3)GalNAc
How it was run: as §1

[9] = target: Fuc(a1-2)Gal(b1-4)GlcNAc(b1-3)[Fuc(a1-2)Gal(b1-4)GlcNAc(b1-6)]GalNAc
How it was run: as §1

[10] = target: Fuc(a1-2)Gal(b1-4)GlcNAc(b1-3)[Fuc(a1-3)[Gal(b1-4)]GlcNAc(b1-6)]Gal(b1-4)Glc
How it was run: as §1

[11] = target: Fuc(a1-2)Gal(b1-4)GlcNAc(b1-6)GalNAc
How it was run: as §1

[12] = target: Fuc(a1-2)Gal(b1-4)GlcNAc6S
How it was run: as §1

[13] = target: Fuc(a1-2)Gal(b1-4)[Fuc(a1-3)]GlcNAc
How it was run: as §1

[14] = target: Fuc(a1-2)Gal(b1-4)[Fuc(a1-3)]GlcNAc(b1-2)Man(a1-3)[Fuc(a1-2)Gal(b1-4)[Fuc(a1-3)]GlcNAc(b1-2)Man(a1-6)]Man(b1-4)GlcNAc(b1-4)[Fuc(a1-6)]GlcNAc
How it was run: as §1

[15] = target: Fuc(a1-2)Gal(b1-4)[Fuc(a1-3)]GlcNAc(b1-2)[Fuc(a1-2)Gal(b1-4)[Fuc(a1-3)]GlcNAc(b1-4)]Man(a1-3)[Fuc(a1-2)Gal(b1-4)[Fuc(a1-3)]GlcNAc(b1-2)Man(a1-6)]Man(b1-4)GlcNAc(b1-4)GlcNAc
How it was run: as §1

[16] = target: Fuc(a1-2)Gal(b1-4)[Fuc(a1-3)]GlcNAc(b1-3)Gal(b1-4)[Fuc(a1-3)]GlcNAc
How it was run: as §1

[17] = target: Fuc(a1-2)Gal(b1-4)[Fuc(a1-3)]GlcNAc(b1-3)Gal(b1-4)[Fuc(a1-3)]GlcNAc(b1-3)Gal(b1-4)[Fuc(a1-3)]GlcNAc
How it was run: as §1

[18] = target: Fuc(a1-2)Gal(b1-4)[Fuc(a1-3)]GlcNAc(b1-3)GalNAc
How it was run: as §1

[19] = target: Fuc(a1-2)Gal(b1-4)[Fuc(a1-3)]GlcNAc(b1-3)[Neu5Ac(a2-6)Gal(b1-4)GlcNAc(b1-6)]Gal(b1-4)Glc
How it was run: as §1

[20] = target: Fuc(a1-2)Gal3S(b1-4)GlcNAc
How it was run: as §1

[21] = target: Fuc(a1-2)Gal6S(b1-3)GlcNAc
How it was run: as §1

B1: SJCP1531 (Schistosoma japonicum) (protein)
chain: MFKVRIINLVNISTVLLLINLLQTKSQVNVEQLVTVLEVNIKAQLKNKTTEVLVEWNPLYQDNSMPEYRKLLDETCKLFLPFVNEKVPPSTYGGECTNANFSEAPQDGSYSRVNAELRLIYKYSDNPQIQTDRLQDDLNDREEFITSESSFVAYNPKFTVKIEKLFIPISESQTTPPPTTAKNDASKKDDDDNGGEDSKAPIDTFAMTASGNKGKKDDDDNGGEDSKAPIDTFAMTASGSKDERSTWTIIGIITLVVLIFVVIGGGITVFVKRC
Fuc(a1-2)Gal(b1-4)Glc6S
  glycan array binding signal (z-score): -0.427
Fuc(a1-2)Gal(b1-4)GlcNAc
  glycan array binding signal (z-score): -0.359
[1]
  glycan array binding signal (z-score): -0.023
[2]
  glycan array binding signal (z-score): -0.454
[3]
  glycan array binding signal (z-score): 0.332
[4]
  glycan array binding signal (z-score): 2.3
[5]
  glycan array binding signal (z-score): -0.674
[6]
  glycan array binding signal (z-score): 0.352
[7]
  glycan array binding signal (z-score): -1.15
[8]
  glycan array binding signal (z-score): 0.199
[9]
  glycan array binding signal (z-score): -0.084
[10]
  glycan array binding signal (z-score): 0.016
[11]
  glycan array binding signal (z-score): -0.358
[12]
  glycan array binding signal (z-score): -0.85
[13]
  glycan array binding signal (z-score): 0.016
[14]
  glycan array binding signal (z-score): 0.902
[15]
  glycan array binding signal (z-score): 0.874
[16]
  glycan array binding signal (z-score): -0.003
[17]
  glycan array binding signal (z-score): 0.243
[18]
  glycan array binding signal (z-score): -1.64
[19]
  glycan array binding signal (z-score): -0.122
[20]
  glycan array binding signal (z-score): -0.935
[21]
  glycan array binding signal (z-score): 0.487
